Laboratory results: PubChem BioAssay AID1296 (Columbia University Molecular Screening Center, 2008)
The campaign covered roughly 130,000 compounds. About 1,000 (0.77%) were called active. Inconclusive results, whose numbers are uncertain, are shown with a selection of clear calls.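 The calls were made as follows: active = activation at 2 µM above a set limit, confirmed on inspection of the cell images; inconclusive = above the set limit but not confirmed on image inspection; inactive = the rest.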

assay: activators of insulin promoter-driven GFP, primary screen, imaging, TRM-6 cells (human fetal islet line), eGFP reporter, cell count (AID 1296;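 also: share of cells whose green reporter signal exceeds an intensity cutoff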); conditions: at 2 µM, hits give high values, plate-scaled: unstimulated 0, stimulated control 100
How it was run: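 Assay system: TRM-6 human fetal islet cells, insulin promoter–eGFP reporter; Also added: 0.75 µM tamoxifen as reporter inducer; Schedule: 15 h tamoxifen pre-treatment, 48 h compound treatment at 37 °C; Signal: fixed-cell fluorescence microscopy, eGFP plus Hoechst; Read-out: percent activation from GFP-positive cell fraction; Control set: stimulated and unstimulated wells.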

| SMILES | activation |
| --- | --- |
| c1ccc(-c2nn3c(Cn4nnc5ccccc54)nnc3s2)cc1 | inconclusive: 141% |
| O=C(CCc1nnc(CCCCc2ccccc2)o1)NCCN1CCOC1=O | inactive: 0% |
| COCCCN(C(=O)Nc1cccc(Cl)c1)C(C)c1ccccn1 (stereo unspecified) | active: 642% |
| CC(=O)c1ccc(NC(=O)C(C)NCc2ccc(Cl)cc2)cc1 (stereo unspecified) | inconclusive: 189% |
| On1onc2c3cc(-c4ccccc4)nc3ccc21 | inconclusive: 127% |
| COc1cc(OC)c(NC(=O)Nc2ccc(OC)c(OC)c2)cc1Cl | inconclusive: 500% |
| O=C(Nc1cccc2ncccc12)C(Cl)(Cl)Cl | inconclusive: 167% [cytotoxic] |
| Nn1c(Cc2ccccc2)n[nH]c1=S | active: 486% |
| Cc1c(C(=O)OC(C)C)[nH]c2c1C(=O)CCC2 | inconclusive: 425% |
| Cc1cccc(C)c1NC(=O)CSc1nnc(C)c(=O)[nH]1 | inactive: 6.67% |
| COc1cc(OC)c(/C=N/NC(=O)c2ccncc2)cc1Br | inconclusive: 321% |
| COCCCn1c(SCC(=O)Nc2cccc(C(=O)OC)c2)nnc1-c1ccncc1 | inconclusive: 185% |
| O=C(NNC(=O)C1CC1c1ccccc1)Nc1ccccc1 (stereo unspecified) | inactive: 0% |
| CCOC(=O)C1=C(C)N(C)C(C)=C(C(=O)OCC)C1c1ccccc1 | inconclusive: 477% |
| CC1(C)O[C@H]2OC([C@H](O)CON3C(=O)c4ccccc4C3=O)[C@H](O)[C@H]2O1 (stereo partly specified) | active: 264% |
| O=C(c1nnsc1S(=O)c1ccc(Cl)cc1)N1CCOCC1 (stereo unspecified) | inconclusive: 218% |

| SMILES | activation |
| --- | --- |
| COC(=O)c1ccccc1N1C(=O)C2C(C1=O)[C@H]1C=C[C@@H]2C1 (stereo partly specified) | inactive: -75% |
| COc1ccc(NC(=O)CN2CCN(CC(=O)Nc3ccccc3F)CC2)c(OC)c1 | inactive: -7.69% |
| CCN1c2ccc(S(=O)(=O)N3CCOCC3)cc2N(Cc2ccc(OC)cc2)C1C (stereo unspecified) | inconclusive: 436% |
| COc1ccc2[nH]c(=O)c(CN(Cc3ccccc3)C(=S)NCC3CCCO3)cc2c1 (stereo unspecified) | inconclusive: 250% |
| c1ccc(NCCCNc2ccccc2)cc1 | inconclusive: 431% |
| C(=C/c1nccc2c1[nH]c1ccccc12)/c1ccc2c(c1)OCO2 | inconclusive: 226% |
| CC(C)c1ccc(OCC(=O)NC(=S)Nc2ccc3c4c(cccc24)CC3)cc1 | inconclusive: 97.1% |
| CCCNS(=O)(=O)c1ccc(OCC(=O)NCc2ccco2)cc1 | inconclusive: 469% |
| COc1ccc(NC(=O)C2CC(=O)OC23CCOC(C)(C)C3)cc1 (stereo unspecified) | inactive: 3.33% |
| CCOC(=O)c1ccccc1NC(=O)CN(c1ccc(OCC)cc1)S(C)(=O)=O | active: 387% |
| COc1ccc(-c2cc(C(F)(F)F)c(C#N)c(SCC(=O)Nc3nc(C)co3)n2)cc1 | inconclusive: 160% |
| Cc1ccccc1OCCc1c(C)[nH]c(=S)[nH]c1=O | inconclusive: 264% [cytotoxic] |
| Nc1cccc2c1C(=O)N(C(=O)/C=C/c1cccc(F)c1)C2=O | inconclusive: 173% |
| CCC(C)N1C(=O)CN(C2CCCCCC2)C(=O)C1c1ccccc1F (stereo unspecified) | inconclusive: 220% |
| CCOC(=O)c1c(NC(C)=O)sc2c1CCC(C=NCCCN(CC)CC)=C2Sc1ccccc1 | inactive: 181% |

Compounds shown so far containing an aryl thioether with sulfur outside any ring, in the order listed:

| SMILES | activation |
| --- | --- |
| Cc1cccc(C)c1NC(=O)CSc1nnc(C)c(=O)[nH]1 | inactive: 6.67% |
| COCCCn1c(SCC(=O)Nc2cccc(C(=O)OC)c2)nnc1-c1ccncc1 | inconclusive: 185% |
| COc1ccc(-c2cc(C(F)(F)F)c(C#N)c(SCC(=O)Nc3nc(C)co3)n2)cc1 | inconclusive: 160% |
| CCOC(=O)c1c(NC(C)=O)sc2c1CCC(C=NCCCN(CC)CC)=C2Sc1ccccc1 | inactive: 181% |
